Among the data in article PMC12192291, “Ancestral [Fe-S] biogenesis system SMS has a unique mechanism of cluster assembly and sulfur utilization” (PLOS Biology, 2025) are binding values, retold here.

Substitutions are numbered along the chain they refer to. Names may count otherwise. No constants are given. Whether binding was seen depends on the method and setting. Some results given as binding are weak or reduced against the parent protein; the word gives no strength.

In experiment [1] the target is SmsC from Methanocaldococcus jannaschii (Methanocaldococcus jannaschii). The experiment is described as follows: SEC; calibrated Hiload 600 Superdex 200, 50 mM Tris-HCl pH 7.8, 100 mM NaCl, 1 mM DTT; no nucleotide; for the complex SmsB2 and SmsC were mixed in molar amounts corresponding to SmsC2B2 and incubated overnight; both purified. (In general: SEC sorts molecules by how far they enter the pores of the column.)

For experiment [2] the target is unchanged. The experiment is described as follows: crystal structure; SmsC2B2: orthorhombic crystals grown under oxic conditions and soaked with AMP-PNP (9H7Y); monoclinic crystals grown under anoxic conditions, sulfate bound (9HBL); both purified.
Experiment [3] concerns the target SmsC K45R variant (Walker A motif) from Methanocaldococcus jannaschii (Methanocaldococcus jannaschii). In words: SEC; SmsC proteins incubated with 10 mM AMP-PCP and then purified by SEC; both purified.
For experiment [4], the target named is T1, SmsC C239A/C242A variant from Methanocaldococcus jannaschii, co-expressed with SmsB (Methanocaldococcus jannaschii).
T1 sequence: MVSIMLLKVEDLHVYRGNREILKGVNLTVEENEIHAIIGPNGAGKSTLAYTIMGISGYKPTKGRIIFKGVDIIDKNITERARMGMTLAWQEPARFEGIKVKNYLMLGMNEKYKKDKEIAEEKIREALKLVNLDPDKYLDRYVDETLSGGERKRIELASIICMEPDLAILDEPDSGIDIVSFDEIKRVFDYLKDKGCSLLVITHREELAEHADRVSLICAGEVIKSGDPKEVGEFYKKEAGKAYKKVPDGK
The experiment is described as follows: co-purification; SmsC_(C239A/C242A) and SmsB co-expressed in E. coli from pVP367 (6His-Tev in front of smsC) and purified as a complex; the steps are not told for this variant.

B1: SmsC from Methanocaldococcus jannaschii (enzyme)
chain: T1 sequence with A239C, A242C
notes: SmsC, Methanocaldococcus jannaschii, ABC ATPase subunit of the SMS system; Monomer in solution without nucleotide; two copies in SmsC2B2; In the cryo-EM sample one of the two copies carries a [4Fe-4S] cluster; also called apo-SmsC; source: E. coli MG1655(DE3) (FBE682), purified (HisTrap, TEV protease, Ni-NTA, SEC); not shown: His6, N-terminal, cleaved
B1: the figures for the binding result in experiment [1] and in experiment [2] were “no binding (condition: without AMP-PCP)” and “binds weakly”, respectively.

B2: SmsC K45R variant (Walker A motif) from Methanocaldococcus jannaschii (enzyme)
chain: T1 sequence with K45R, A239C, A242C
For the molecule B2, in experiment [3], the binding result was “no binding”.

B3: SmsB from Methanocaldococcus jannaschii (natural protein)
chain: MSIKEELMEIIEAIKYTSEKPEEIVHGKGPRIIVKESRIIDVQGDEGIILEGKEEDGKIKAKIIVKKGYKFKYPIHMCFGITEENISQIIDVEIILEEDSSISLMSHCSFPKGKGIKHIMNGIIKIGKNAKFSYNEFHYHGMDGDILVKPTVKVEIDEGGIYISNFTLTKGRIGTLDIEQEIIAKKDAIIDITTRTYAIKEDVVKVNEVVKLNGENAKCIIKSRGAAMDNSKISLKLKIEGNAPYSKGHIDCAEIVKGNAEVESIPIVVVRDDKARITHEAAIGSVDKKQLETLMAKGLDEDEATEIIVKGMIGDL
notes: SmsB, Methanocaldococcus jannaschii, subunit of the SMS system; Mainly a homodimer in solution; two copies in SmsC2B2; also called SmsB2; source: E. coli MG1655(DE3) (FBE682), purified (HisTrap, TEV protease, Ni-NTA, SEC); not shown: His6, N-terminal, cleaved
For the molecule B3, the binding result in experiment [4] is “binds”.
